The list shows a part of the results.
How the values were obtained:
Assay in all cases: glycan array binding signal (z-score within array); higher = stronger binding
Details in all cases: glycan notation: IUPAC condensed, linker removed
[1] = molecular target: Fuc(a1-2)[Gal(a1-4)]Gal(b1-4)GlcNAc
Method in brief: (§1)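 The binding signal is a Z-score computed within each array and averaged over linkers. Arrays of the same protein sequence at different concentrations or buffers were also averaged together. Data originate from 3228 arrays in the Consortium for Functional Glycomics database, kept only where the protein sequence was available.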

[2] = molecular target: Fuc(a1-2)[GalNAc(a1-3)]Gal
Method in brief: as §1

[3] = molecular target: Fuc(a1-2)[GalNAc(a1-3)]Gal(b1-3)GalNAc(a1-3)[Fuc(a1-2)]Gal(b1-4)GlcNAc
Method in brief: as §1

[4] = molecular target: Fuc(a1-2)[GalNAc(a1-3)]Gal(b1-3)GalNAc(b1-3)Gal(a1-4)Gal(b1-4)Glc
Method in brief: as §1

[5] = molecular target: Fuc(a1-2)[GalNAc(a1-3)]Gal(b1-3)GlcNAc
Method in brief: as §1

[6] = molecular target: Fuc(a1-2)[GalNAc(a1-3)]Gal(b1-3)GlcNAc(b1-2)Man(a1-3)[Fuc(a1-2)[GalNAc(a1-3)]Gal(b1-3)GlcNAc(b1-2)Man(a1-6)]Man(b1-4)GlcNAc(b1-4)GlcNAc
Method in brief: as §1

[7] = molecular target: Fuc(a1-2)[GalNAc(a1-3)]Gal(b1-3)GlcNAc(b1-2)Man(a1-3)[Fuc(a1-2)[GalNAc(a1-3)]Gal(b1-3)GlcNAc(b1-2)Man(a1-6)]Man(b1-4)GlcNAc(b1-4)[Fuc(a1-6)]GlcNAc
Method in brief: as §1

[8] = molecular target: Fuc(a1-2)[GalNAc(a1-3)]Gal(b1-3)GlcNAc(b1-3)GalNAc
Method in brief: as §1

[9] = molecular target: Fuc(a1-2)[GalNAc(a1-3)]Gal(b1-3)GlcNAc(b1-6)GalNAc
Method in brief: as §1

[10] = molecular target: Fuc(a1-2)[GalNAc(a1-3)]Gal(b1-4)Glc
Method in brief: as §1

[11] = molecular target: Fuc(a1-2)[GalNAc(a1-3)]Gal(b1-4)GlcNAc
Method in brief: as §1

[12] = molecular target: Fuc(a1-2)[GalNAc(a1-3)]Gal(b1-4)GlcNAc(b1-2)Man
Method in brief: as §1

[13] = molecular target: Fuc(a1-2)[GalNAc(a1-3)]Gal(b1-4)GlcNAc(b1-2)Man(a1-3)[Fuc(a1-2)[GalNAc(a1-3)]Gal(b1-4)GlcNAc(b1-2)Man(a1-6)]Man(b1-4)GlcNAc(b1-4)GlcNAc
Method in brief: as §1

[14] = molecular target: Fuc(a1-2)[GalNAc(a1-3)]Gal(b1-4)GlcNAc(b1-2)Man(a1-3)[Fuc(a1-2)[GalNAc(a1-3)]Gal(b1-4)GlcNAc(b1-2)Man(a1-6)]Man(b1-4)GlcNAc(b1-4)[Fuc(a1-6)]GlcNAc
Method in brief: as §1

[15] = molecular target: Fuc(a1-2)[GalNAc(a1-3)]Gal(b1-4)GlcNAc(b1-3)Gal(b1-4)GlcNAc
Method in brief: as §1

[16] = molecular target: Fuc(a1-2)[GalNAc(a1-3)]Gal(b1-4)GlcNAc(b1-3)Gal(b1-4)GlcNAc(b1-3)Gal(b1-4)GlcNAc
Method in brief: as §1

[17] = molecular target: Fuc(a1-2)[GalNAc(a1-3)]Gal(b1-4)GlcNAc(b1-3)GalNAc
Method in brief: as §1

[18] = molecular target: Fuc(a1-2)[GalNAc(a1-3)]Gal(b1-4)GlcNAc(b1-3)[Fuc(a1-2)[GalNAc(a1-3)]Gal(b1-4)GlcNAc(b1-6)]GalNAc
Method in brief: as §1

[19] = molecular target: Fuc(a1-2)[GalNAc(a1-3)]Gal(b1-4)GlcNAc(b1-6)GalNAc
Method in brief: as §1

[20] = molecular target: Fuc(a1-2)[GalNAc(a1-3)]Gal(b1-4)[Fuc(a1-3)]GlcNAc
Method in brief: as §1

[21] = molecular target: Fuc(a1-2)[GalNAc(a1-3)]Gal(b1-4)[Fuc(a1-3)]GlcNAc(b1-3)GalNAc
Method in brief: as §1

[22] = molecular target: Fuc(a1-2)[GalNAc(a1-4)]Gal(b1-4)GlcNAc
Method in brief: as §1

[23] = molecular target: Fuc(a1-2)[GalNAc(b1-3)]Gal
Method in brief: as §1

[24] = molecular target: Fuc(a1-3)GlcNAc
Method in brief: as §1

[25] = molecular target: Fuc(a1-3)[Gal(b1-4)]Glc6S
Method in brief: as §1

[26] = molecular target: Fuc(a1-3)[Gal(b1-4)]GlcNAc
Method in brief: as §1

[27] = molecular target: Fuc(a1-3)[Gal(b1-4)]GlcNAc(b1-2)Man
Method in brief: as §1

[28] = molecular target: Fuc(a1-3)[Gal(b1-4)]GlcNAc(b1-2)Man(a1-3)[Fuc(a1-3)[Gal(b1-4)]GlcNAc(b1-2)Man(a1-6)]Man(b1-4)GlcNAc(b1-4)GlcNAc
Method in brief: as §1

[29] = molecular target: Fuc(a1-3)[Gal(b1-4)]GlcNAc(b1-2)Man(a1-3)[Fuc(a1-3)[Gal(b1-4)]GlcNAc(b1-2)Man(a1-6)]Man(b1-4)GlcNAc(b1-4)[Fuc(a1-6)]GlcNAc
Method in brief: as §1

[30] = molecular target: Fuc(a1-3)[Gal(b1-4)]GlcNAc(b1-3)Gal(b1-3)[Fuc(a1-4)]GlcNAc
Method in brief: as §1

[31] = molecular target: Fuc(a1-3)[Gal(b1-4)]GlcNAc(b1-3)Gal(b1-4)[Fuc(a1-3)]GlcNAc
Method in brief: as §1

[32] = molecular target: Fuc(a1-3)[Gal(b1-4)]GlcNAc(b1-3)Gal(b1-4)[Fuc(a1-3)]GlcNAc(b1-3)Gal(b1-4)[Fuc(a1-3)]GlcNAc
Method in brief: as §1

[33] = molecular target: Fuc(a1-3)[Gal(b1-4)]GlcNAc(b1-3)GalNAc
Method in brief: as §1

[34] = molecular target: Fuc(a1-3)[Gal(b1-4)]GlcNAc(b1-6)GalNAc
Method in brief: as §1

[35] = molecular target: Fuc(a1-3)[Gal(b1-4)]GlcNAc(b1-6)[Gal(b1-3)GlcNAc(b1-3)]Gal(b1-4)Glc
Method in brief: as §1

[36] = molecular target: Fuc(a1-3)[Gal(b1-4)]GlcNAc6S
Method in brief: as §1

[37] = molecular target: Fuc(a1-3)[Gal3S(b1-4)]Glc
Method in brief: as §1

[38] = molecular target: Fuc(a1-3)[Gal3S(b1-4)]GlcNAc
Method in brief: as §1

B1: PX14375A-pdi-503-28-503 (Parabacteroides distasonis) (protein)
chain: PLGSPEAGDISEERQAFLRLTAVYSVMKDFRYTWSMQCFGDVLSNDATYSGSSNDAQTFTLLENYQYQADHTEILNKYRYSYQCINKANLFIRDMEMADDALFSKYDKEQMIGEAKFIRAYTYFELVKTFGGVPCYTGVLDLDHERLGRASVEEIYSVIEQDLNDAVSVLPKKSEVANYESSYAGRITKGAAIAMQTRIYLYEKKYDEVKKAFEKFQNECGGEYSLVAPEDYTWQFSLDGEHCSSSILEVNMYNSSTQSSYNVNNGNRHVLMSMPRNMTIGFGCAQPTQALADAYDAEGDVIRKKTTLLSTEEAIEIETAAKGDVAPVTDDRTGWYNRKLYLAPGQREENRGNNQPTNLRLIRLAEVYLNYAEACYFSGDIANAQKYLNEVRSHVNLAPKNHTGSQLFEDIMNERHLEFGMEGFRFFDVVRVGWGEKVFNGTKKAEFGAKTPFSAGAEVLPIPQTEIDISDGLITN
- glycan array binding signal (z-score) [1]: 0.557
- glycan array binding signal (z-score) [2]: -0.531
- glycan array binding signal (z-score) [3]: -0.157
- glycan array binding signal (z-score) [4]: -0.664
- glycan array binding signal (z-score) [5]: -0.172
- glycan array binding signal (z-score) [6]: -0.446
- glycan array binding signal (z-score) [7]: -0.166
- glycan array binding signal (z-score) [8]: -0.391
- glycan array binding signal (z-score) [9]: -0.687
- glycan array binding signal (z-score) [10]: -0.085
- glycan array binding signal (z-score) [11]: 0.161
- glycan array binding signal (z-score) [12]: -0.235
- glycan array binding signal (z-score) [13]: 0.123
- glycan array binding signal (z-score) [14]: 0.098
- glycan array binding signal (z-score) [15]: 0.005
- glycan array binding signal (z-score) [16]: 0.191
- glycan array binding signal (z-score) [17]: -0.359
- glycan array binding signal (z-score) [18]: -0.429
- glycan array binding signal (z-score) [19]: -1.03
- glycan array binding signal (z-score) [20]: -0.827
- glycan array binding signal (z-score) [21]: -0.614
- glycan array binding signal (z-score) [22]: -0.304
- glycan array binding signal (z-score) [23]: -0.705
- glycan array binding signal (z-score) [24]: -0.753
- glycan array binding signal (z-score) [25]: 0.278
- glycan array binding signal (z-score) [26]: -0.242
- glycan array binding signal (z-score) [27]: 0.074
- glycan array binding signal (z-score) [28]: 0.397
- glycan array binding signal (z-score) [29]: -0.548
- glycan array binding signal (z-score) [30]: -0.721
- glycan array binding signal (z-score) [31]: -0.516
- glycan array binding signal (z-score) [32]: -0.089
- glycan array binding signal (z-score) [33]: 1.12
- glycan array binding signal (z-score) [34]: -0.205
- glycan array binding signal (z-score) [35]: -0.522
- glycan array binding signal (z-score) [36]: 0.08
- glycan array binding signal (z-score) [37]: -0.451
- glycan array binding signal (z-score) [38]: -0.883

From the supplement of paper PMC8728848
